PubChem BioAssay AID540256 (National Center for Advancing Translational Sciences (NCATS), 2011)
Where “and” joins values, the source holds several entries; their conditions need not be identical. Identical values can stand only once. Hit rate of the full screen: of about 300,000 compounds, about 3,700 (1.2%) were called active. Inconclusive means that the source gave no clear call. Such entries were picked first, then a sample of the others. Calls come from the whole dose curve; tested in HEK293 cells. Potencies beside an inconclusive call are fits to weak or partial responses and may not hold up.

Assay: qHTS for Inhibitors of binding or entry into cells for Lassa Virus; note: nearly all actives have a fitted effect of over 50% in size
Settings: Lassa virus pseudotype entry inhibition, cell reporter; series mostly up to 37.9 µM
Potency is the fitted concentration of half-maximal effect.

Structure (SMILES) | Potency
COc1ccc([N+](=O)[O-])cc1/C=N/NC(=O)c1nonc1N | inactive
CCOC(=O)c1cnn(CCOC(=O)c2cccc(F)c2)c1NC(=O)c1cccc(F)c1 | inconclusive: 23.1 µM [inhibitor, partial curve, poor fit]
O=C(Nc1ccc(Cc2ccc(NC(=O)C3CC3)c(O)c2)cc1O)C1CC1 | inconclusive: 25.9 µM [inhibitor, partial curve, poor fit]
COc1ccc(CCNC(=O)C(=O)NCC2CCCN2S(=O)(=O)c2ccccc2)cc1 (stereo not drawn) | inconclusive: 35.5 µM [inhibitor, single point]
C#CCOc1ccc(-c2nnc(Nc3ccc(NC(C)=O)cc3)c3ccccc23)cc1 | inconclusive: 8.91 µM [inhibitor, partial curve, poor fit]
C=CCc1cc(/C=N\NC(=O)CSc2nnc(CCCc3ccc(OC)c(C)c3)o2)cc(OC)c1O | inconclusive: 0.794 µM [inhibitor, full curve]
Cc1oc2ccc(O)c(CN3CCCC3)c2c1C(=O)Nc1ccc(C(C)C)cc1 | inconclusive: 10 µM [inhibitor, partial curve]
COc1ccc(-c2cnc(C)o2)cc1S(=O)(=O)Nc1c(C)cc(C)cc1C | inactive
O=C(NCc1ccc2c(c1)OCO2)c1c[nH]c2ccc(S(=O)(=O)N3CCOCC3)cc2c1=O | active: 0.517 µM
Cc1ccc(-c2nnn(CC(=O)N(c3ccccc3F)C(C(=O)NCC3CCCO3)c3c[nH]c4ccccc34)n2)cc1 (stereo not drawn) | inconclusive: 10.3 µM [inhibitor, partial curve]
O=C(CSc1nc(-c2ccco2)cc(C(F)(F)F)n1)Nc1ccc(C(=O)N2CCOCC2)cc1 | inactive
COc1cccc2c(C)nc(Nc3nc(CSc4nnc(C)s4)cc(=O)[nH]3)nc12 | inactive
O=C(c1cc(-c2ccncc2)nc2ccc(Br)cc12)N1CCN(c2ccccn2)CC1 | inconclusive: 17.8 µM [inhibitor, single point]
COc1ccc(N2CC(C(=O)N/N=C/c3cc([N+](=O)[O-])ccc3O)CC2=O)cc1 (stereo not drawn) | inconclusive: 6.31 µM [inhibitor, single point]
CCCCOc1cccc(C(=O)Nc2cc(NC(=O)c3ccco3)ccc2OC)c1 | inactive
CCN1C(=O)[C@@H]2[C@H]3[C@H](O)[C@H](O)CC(=NOC[C@@H](O)[C@H]4O[C@@H]5OC(C)(C)O[C@H]5[C@@H]4O)[C@@H]3CC[C@H]2C1=O | inconclusive: 12.5 nM [activator, full curve, poor fit] and inconclusive: 35.3 µM [activator, single point]
Cc1cc(C)n(C(=O)Cn2nc(C(F)F)cc2C)n1 | inconclusive: 7.3 µM [inhibitor, partial curve, poor fit]
Cc1ccc(OCC(=O)Nc2ccccc2C(=O)N2CCCC2)cc1 | inconclusive: 5.01 µM [activator, single point]
CCc1cc2ccc(OC)cc2nc1SCC(=O)NNC(C)=O | inconclusive: 1.26 µM [inhibitor, single point]
COc1ccc(N(CC(=O)NCCSc2ccccc2)S(C)(=O)=O)cc1 | inconclusive: 1.3 µM [inhibitor, partial curve, poor fit]
CCCOc1cccc(C2c3c(oc4ccc(F)cc4c3=O)C(=O)N2c2nc(C)c(C(C)=O)s2)c1 (stereo not drawn) | inactive

Structure (SMILES) | Potency
O=S(=O)(c1ccc2c(c1)nc(COc1ccc(Cl)cc1)n2CC1CCCO1)N1CCOCC1 (stereo not drawn) | inconclusive: 20.6 µM [inhibitor, partial curve, poor fit]
CSc1ccc(/C=N/NC(=O)c2cccc(O)c2)cc1 | inconclusive: 17.8 µM [inhibitor, partial curve, poor fit]
CCOC(=O)C1=C(C)NC(C)=C(C(=O)OCC)C1c1ccc([N+](=O)[O-])s1 | inactive
CCc1ccccc1N(CC)C(=O)C1CCN(c2ncnc3c2nc2n3CCCCC2)CC1 | inconclusive: 10 µM [inhibitor, partial curve]
Cc1ccc(-c2nc(N/N=C/c3cccnc3)c3ccccc3n2)cc1 | inconclusive: 20.6 µM [inhibitor, partial curve, poor fit]
CCCCNC(=O)CN1CCN(c2ncc(NC(=O)c3ccc(Cl)cc3)cc2C(=O)O)CC1 | inactive
C=CCn1c(SCc2nc3ccccc3[nH]2)nnc1-c1cccc(OC)c1 | inactive
O=C(CCCC(=O)NN=Cc1ccccc1Cl)NN=Cc1ccccc1Cl | inactive
COc1ccc(C(=O)Cn2c(C(=O)/C=C/c3ccccc3)nc3ccccc32)cc1 | inconclusive: 25.9 µM [inhibitor, single point]
COc1cccc(C(=O)NCC(=O)N2CCC3(CC2)NCCc2[nH]cnc23)c1OC | inconclusive: 35.5 µM [activator, partial curve, poor fit]
COc1ccc(C(=O)/C=C/Nc2ccccn2)c(OC)c1 | inconclusive: 11.2 µM [inhibitor, single point]
C=CCN1C(=O)C(CC(=O)Nc2ccc(OCCC)cc2)N(CCCN2CCN(Cc3ccccc3)CC2)C1=S (stereo not drawn) | inconclusive: 22.4 µM [inhibitor, partial curve, poor fit]
CC(C)Oc1cc(NC(=O)CS(=O)CC(=O)Nc2cccc(C(F)(F)F)c2)c(Cl)cc1Cl (stereo not drawn) | inconclusive: 32.6 µM [inhibitor, single point]
Cc1ccc(S(=O)(=O)NC(=S)NC2CCCCC2)cc1 | inactive
Cc1ccc([N+](=O)[O-])cc1NC(=O)CN1CCCCC1 | inactive
O=C(c1ccc(Cl)cc1)N1CCCCC(Cl)C1=O (stereo not drawn) | inconclusive: 3.16 µM [inhibitor, partial curve, poor fit]
Cc1ccc2cc(C(c3nnnn3Cc3ccccc3)N3CCc4ccccc43)c(=O)[nH]c2c1 (stereo not drawn) | inconclusive: 13 µM [inhibitor, partial curve]
Cc1ccc(NC(=O)C(NC2CCCc3ccccc32)c2ccccc2)cc1Cl (stereo not drawn) | inconclusive: 7.08 µM [inhibitor, full curve]
N#CCCn1cc(C(=O)Nc2ccccc2Br)c(-c2ccc([N+](=O)[O-])cc2)n1 | inconclusive: 1.46 µM [inhibitor, partial curve, poor fit]
CCOc1ccc(-c2nc(C#N)c(N3CCN(CC)CC3)o2)cc1 | inactive
CCCCCCn1ccc(=N)cc1 | inconclusive: 17.8 µM [inhibitor, single point]

Structure (SMILES) | Potency
Cc1cccc(NS(=O)(=O)c2cc(C(=O)OC(C)C(=O)NCc3ccc4c(c3)OCO4)ccc2C)c1 (stereo not drawn) | inconclusive: 17.8 µM [inhibitor, single point]
COc1cccc(-c2nn(-c3ccc(C)cc3)cc2C(=O)N2CCc3cc(OC)c(OC)cc3C2)c1 | inconclusive: 8.91 µM [inhibitor, partial curve, poor fit]
CCCCCC(=O)N1C[C@@H](n2cc(-c3ccc(F)cc3)nn2)[C@H](O)C[C@H]1c1ccc(OC)cc1 | inconclusive: 0.315 µM [inhibitor, full curve, poor fit]
O=C1NC(=O)C(Nc2cccc3ccccc23)S1 (stereo not drawn) | inconclusive: 1 µM [inhibitor, full curve]
O=C1CCC/C1=C\Nc1ccc(Cl)c([N+](=O)[O-])c1 | inactive
COc1ccc(NC2CCCN(C(=O)CSc3ccccc3)C2)cc1OC (stereo not drawn) | inactive
Cc1cccc(N2CCN(C(=O)c3cc4ccc5cccnc5c4[nH]3)CC2C)c1 (stereo not drawn) | inactive
CC(=O)N1N=C(c2ccccc2)CC1c1ccccc1 (stereo not drawn) | inconclusive: 0.316 µM [activator, full curve, poor fit]
CN(C)S(=O)(=O)c1cccc(NC(=O)COC(=O)/C=C/c2ccco2)c1 | inactive
NC(=O)[C@@H]1CCCCNc2c(I)cc([N+](=O)[O-])cc2C(=O)N[C@@H](CCC(=O)O)C(=O)N[C@@H](CO)C(=O)N1 | inconclusive: 0.58 µM [inhibitor, partial curve, poor fit]
COc1ccc(C(=O)C(C)Oc2cccc(NC(=O)c3cccc([N+](=O)[O-])c3)c2)cc1 (stereo not drawn) | inconclusive: 12.6 µM [inhibitor, partial curve, poor fit]
Cc1occc1-c1nnc(SCC(=O)N2c3ccccc3CCc3ccccc32)n1C | inactive
CCOC(=O)Cc1csc(NC(=O)NC2(C(F)(F)F)Oc3ccc(Cl)cc3O2)n1 (stereo not drawn) | inconclusive: 35.5 µM [inhibitor, single point]
O=C(c1cc2ccc3cccnc3c2[nH]1)N1CCN(c2cccc(Cl)c2)CC1 | inactive
CCc1ccccc1NC(=O)NC(CC)Cn1nnc2ccccc2c1=O (stereo not drawn) | inconclusive: 35.5 µM [activator, single point]
Cc1ccc(-n2nc3c(=O)n(C(C)C(=O)NCc4ccccc4C)nc(C)c3c2C)cc1 (stereo not drawn) | inactive
O=C(CSc1ccc(Cl)cc1)N1CCN(c2c(Cl)cccc2[N+](=O)[O-])CC1 | inactive
O=C(NC1CCCCC1)C(c1ccco1)N(C(=O)c1csnn1)c1ccc(Cl)cc1 (stereo not drawn) | inconclusive: 8.91 µM [inhibitor, partial curve, poor fit]
COC(=O)CC1C(=O)NC2CCCCC2N1C(=O)CCl (stereo not drawn) | inconclusive: 35.5 µM [inhibitor, single point]
CCCCc1nn2c(=O)cc(COC(=O)c3ccccc3C)nc2s1 | inconclusive: 4.47 µM [activator, full curve]
Cc1ccc(F)cc1NC(=O)CSc1nc(Nc2ccccc2)nc(N2CCOCC2)n1 | inconclusive: 5.62 µM [inhibitor, single point]
